Measured values as given in US20140000882A1, “PETROLEUM RECOVERY PROCESS AND SYSTEM” (Shell Oil Company, priority 2012, published 2014).

Assay: Oil recovery from formation core by brine displacement followed by DMS displacement
Settings: after brine displacement
Protocol: Incremental recovery of oil from a formation core using an oil recovery formulation consisting of dimethyl sulfide following oil recovery from the core by water-flooding was measured to evaluate the effectiveness of DMS as a tertiary oil recovery agent.
Two 5.02 cm long Berea sandstone cores with a core diameter of 3.78 cm and a permeability between 925 and 1325 mD were saturated with a brine having a composition as set forth in Table 7.
After saturation of the cores with brine, the brine was displaced by a Middle Eastern Asphaltic crude oil having the characteristics as set forth above in Table 3 to saturate the cores with oil.
Oil was recovered from each oil saturated core by the addition of brine to the core under pressure and by subsequent addition of DMS to the core under pressure. Each core was treated as follows to determine the amount of oil recovered from the core by addition of brine followed by addition of DMS. Oil was initially displaced from the core by addition of brine to the core under pressure. A confining pressure of 1 MPa was applied to the core during addition of the brine, and the flow rate of brine to the core was set at 0.05 ml/min. The core was maintained at a temperature of 50° C. during displacement of oil from the core with brine. Oil was produced and collected from the core during the displacement of oil from the core with brine until no further oil production was observed (24 hours). After no further oil was displaced from the core by the brine, oil was displaced from the core by addition of DMS to the core under pressure. DMS was added to the core at a flow rate of 0.05 ml/min for a period of 32 hours for the first core and for a period of 15 hours for the second core. Oil displaced from the core during the addition of DMS to the core was collected separately from the oil displaced by the addition of brine to the core.
The oil samples collected from each core by brine displacement and by DMS displacement were isolated from water by extraction with dichloromethane, and the separated organic layer was dried over sodium sulfate. After evaporation of volatiles from the separated, dried organic layer of each oil sample, the amount of oil displaced by brine addition to a core and the amount of oil displaced by DMS addition to the core were weighed. Volatiles were also evaporated from a sample of the Middle Eastern asphaltic oil to be able to correct for loss of light-end compounds during evaporation.

[1] = Core 1, 0.05 ml/min for 32 hours
[2] = Core 2, 0.05 ml/min for 15 hours

Question: With `CSC` [Dimethyl Sulfide, dimethyl sulfide] as the molecule, how does the “Oil produced DMS displacement” value [1] read?
Answer: 3.5 mL

Question: And the “Oil produced DMS displacement (of % oil initially in core)” value [1]?
Answer: 32%

Question: And the “Oil produced DMS displacement” value [2]?
Answer: 3.3 mL

Question: And the “Oil produced DMS displacement (of % oil initially in core)” value [2]?
Answer: 30%
